Test results published in patent US20030077322A1, “Solid dispersion system of pranlukast with improved dissolution and method for preparing the same” (priority 2000, published 2003).
At least one compound was matched to its structure with a doubt left. Some results were stated once for a whole list of compounds, not compound by compound.

Key:
[1] = Dissolution test, USP Method II (Paddle method), pH 6.8, 37° C.; type: physicochemical; conditions: pH 6.8, 900 mL second fluid, paddle 100 rpm, HPLC
[2] = Solubility of pranlukast in organic solvents; type: physicochemical; conditions: dichloromethane/methanol solvent mixture, heat optional

With `O=C(Nc1cccc2c(=O)cc(-c3nnn[nH]3)oc12)c1ccc(OCCCCc2ccccc2)cc1` [pranlukast, 4-oxo-8-[4-(4-phenylbutoxy)benzoyl-amino]-2-(tetrazol-5-yl)-4H-1-benzopyran hemihydrate] the dissolution rate [1] was “less than 5%” and the “concentration to which pranlukast may be dissolved” value [2] was “at least 1%”.
